Assay results from PubChem BioAssay AID540256 (National Center for Advancing Translational Sciences (NCATS), 2011).
Out of some 300,000 compounds screened, about 3,700 (1.2%) were called active. This list was built around the results that the source calls inconclusive (neither active nor inactive); the mix of calls is not that of the screen. Calls come from the whole dose curve; tested in HEK293 cells. Where the call is inconclusive, the potency comes from a doubtful curve fit.

assay: qHTS for Inhibitors of binding or entry into cells for Lassa Virus; conditions: Lassa virus pseudotype entry inhibition, cell reporter; activity change, negative = inhibition: at 37.9 µM (top of the series) unless noted; note: nearly all actives have a fitted effect of over 50% in size
% is set by controls: 0 for no effect and ±100 for the full control effect; potency is the fitted concentration of half-maximal effect.

Question: Which Potency does the source give for COCC(C)n1c(C)cc(C(=O)CSc2ccc(NC(C)=O)cc2)c1C (configuration not stated) here?
Answer: inconclusive: 12.6 µM [inhibitor, single point]

Question: Which Potency does the source give for Cc1ccc(-c2csc(N(CCc3ccccc3)C(=O)COc3ccccc3)n2)cc1 here?
Answer: inconclusive: 29.1 µM [inhibitor, single point]

Question: For CCN(CC)C1Oc2cc3c(cc2C(c2cc(OC)c(OC)c(OC)c2)C1C)OCO3 (configuration not stated), which Potency is on record?
Answer: inconclusive: 3.98 µM [inhibitor, partial curve]

Question: Which Potency does the source give for C=CCn1c(SCCC#N)nnc1-c1ccncc1 here?
Answer: inconclusive: 23.1 µM [activator, partial curve, poor fit]

Question: Which Potency does the source give for Cc1ccc(C(=O)Nc2nc3nc(C)cc(=O)n3[nH]2)cc1 here?
Answer: inconclusive: 11.2 µM [activator, partial curve, poor fit]

Question: For COc1ccccc1N(CC(=O)NC(C)(C)C)S(=O)(=O)c1cccs1, which Potency is on record?
Answer: inconclusive: 1.26 µM [inhibitor, single point]

Question: Which Potency does the source give for CCOC(=O)C1(Cc2ccccc2Cl)CCN(C(=O)CN2CCOC2=O)CC1 here?
Answer: inconclusive: 35.5 µM [activator, single point]

Question: With Cc1nnc(SCC(=O)Nc2cccc(N)c2)n1-c1ccccc1 as the molecule, how does the Potency read?
Answer: inconclusive: 0.794 µM [inhibitor, single point]

Question: Which “activity change, negative = inhibition” value does the source give for CCOc1ccc(-c2nc(CNC(=O)NC3CCCCC3)c(C)o2)cc1 here?
Answer: inactive: 26.3% [at 46.1 µM]

Question: With COc1ccc(-n2nnnc2-c2cccc(OC)c2)cc1 as the molecule, how does the Potency read?
Answer: inconclusive: 5.17 µM [inhibitor, full curve]

Question: For Cc1ccc(C)c(Nc2nn3c(=O)c4ccc(C(=O)NCCC5=CCCCC5)cc4nc3s2)c1, which Potency is on record?
Answer: inconclusive: 6.31 µM [inhibitor, single point]

Question: With O=C(NCC1CC1)c1ccc(-c2cccc(C(=O)NC3CC3)c2)cc1 as the molecule, how does the Potency read?
Answer: inconclusive: 5.6 µM [activator, full curve, poor fit]

Question: For COc1ccc(CC2SC(=Nc3ccc(F)cc3)NC2=O)cc1 (configuration not stated), which Potency is on record?
Answer: active: 4.47 µM

Question: Which Potency does the source give for COC(=O)c1c(C(=O)OC)n(CCCN)c2ccc(C)cc12 here?
Answer: inconclusive: 29.1 µM [inhibitor, single point]

Question: With COc1ccc(/C=N/NS(=O)(=O)c2ccc(F)cc2)cc1CN1CCSCC1 as the molecule, how does the Potency read?
Answer: inconclusive: 25.1 µM [inhibitor, single point]

Question: For O=C(Cc1cccs1)Nc1nc(-c2ccc(F)cc2F)cs1, which Potency is on record?
Answer: active: 1.64 µM

Question: For O=C(CCc1ccccc1)N(Cc1cccnc1)c1nc2c(F)cc(F)cc2s1, which Potency is on record?
Answer: inconclusive: 1.41 µM [inhibitor, partial curve, poor fit]

Question: With Cc1nc2ncnn2c(N2CCCC(C(=O)Nc3ccc4c(c3)CCC4)C2)c1C (configuration not stated) as the molecule, how does the Potency read?
Answer: inconclusive: 0.73 µM [inhibitor, full curve, poor fit]

Question: With CCOc1ccc(OCc2ccc(C(=O)Nc3cc(OC)c(OC)c(OC)c3)o2)cc1 as the molecule, how does the “activity change, negative = inhibition” value read?
Answer: inactive: -26.5% [at 46.1 µM]

Question: For CCOC(=O)C1CCCN(Cc2ccccc2OCC)C1 (configuration not stated), which Potency is on record?
Answer: inconclusive: 0.092 µM [activator, full curve, poor fit]

Question: Which Potency does the source give for Cc1ccccc1NC(=O)Cn1c(=O)n(CCCCCC(=O)NCc2ccccc2Cl)c(=O)c2sccc21 here?
Answer: inconclusive: 35.5 µM [inhibitor, single point]

Question: For CCCc1ccc(C(=O)/C=C/N(C)C)cc1, which Potency is on record?
Answer: inconclusive: 35.5 µM [inhibitor, single point]

Question: Which Potency does the source give for CCOC(=O)c1c(C)[nH]c(C(=O)OCC(=O)c2ccccc2)c1C here?
Answer: inconclusive: 17.8 µM [inhibitor, single point]

Question: For COc1cc(/C=N/Nc2nc(C)nc3c2cnn3-c2ccccc2)ccc1O, which Potency is on record?
Answer: inconclusive: 3.16 µM [inhibitor, partial curve, poor fit]

Question: With COCCCNC(=O)c1[nH]c2ccccc2c1Sc1ccc(C)cc1 as the molecule, how does the “activity change, negative = inhibition” value read?
Answer: inactive: 5.55% [at 46.1 µM]

Question: Which Potency does the source give for CCOC(=O)c1ccccc1NC(=O)Cn1c(=O)n(CCC(=O)N2CCc3ccccc3C2)c(=O)c2ccccc21 here?
Answer: inconclusive: 35.5 µM [inhibitor, single point]

Question: For O=C(c1ccc(F)cc1)N(Cc1ccco1)C1CCS(=O)(=O)C1 (configuration not stated), which Potency is on record?
Answer: inconclusive: 4.47 µM [activator, partial curve, poor fit]

Question: For COc1cc(C2CC(=O)c3c([nH]c(C(=O)OCc4ccc(C)cc4)c3C)C2)cc(OC)c1OC (configuration not stated), which “activity change, negative = inhibition” value is on record?
Answer: inactive: -12% [at 46.1 µM]

Question: With Cc1ccc(CN(Cc2ccccn2)C(=O)Nc2ccc(C)c(C)c2)cc1 as the molecule, how does the Potency read?
Answer: inconclusive: 3.16 µM [inhibitor, full curve, poor fit]

Question: For COc1cc2c(cc1OC)[C@H](C)N(C(=S)Nc1ccc(F)cc1)CC2, which “activity change, negative = inhibition” value is on record?
Answer: inactive: -19.7%

Question: With CCOC(=O)/C(=N\Nc1ncnc2ccccc12)c1ccc(C)cc1 as the molecule, how does the Potency read?
Answer: active: 1.12 µM

Question: Which Potency does the source give for COc1ccc(NC(=O)CN(C)S(=O)(=O)c2cccs2)cc1 here?
Answer: inconclusive: 0.891 µM [inhibitor, single point]

Question: Which Potency does the source give for COc1ccc(-c2noc(CN(C(=O)c3cccs3)C(C)C)n2)cc1 here?
Answer: inconclusive: 1.83 µM [activator, partial curve, poor fit]

Question: With Cc1ccc(NC(=O)/C=C/c2ccc(Cl)cc2)c(Br)c1 as the molecule, how does the “activity change, negative = inhibition” value read?
Answer: inactive: 0.626% [at 46.1 µM]

Question: Which Potency does the source give for COC(=O)c1c(NC(=O)Cc2cccs2)sc2c1CCCC2 here?
Answer: inconclusive: 35.5 µM [inhibitor, single point]

Question: Which Potency does the source give for CC(C)C[C@H]1COc2cc(NCCO)ccc2S(=O)(=O)N1 here?
Answer: inconclusive: 28.1 µM [activator, single point]

Question: For COc1ccc(/C=C/C(=O)NCc2cccnc2)cc1, which “activity change, negative = inhibition” value is on record?
Answer: inactive: 23.1%

Question: Which Potency does the source give for CC1(C(=O)O)CCC(C(=O)NNC(=O)c2ccccc2Cl)C1(C)C (configuration not stated) here?
Answer: inconclusive: 1.41 µM [inhibitor, partial curve, poor fit]

Question: For COc1ccc(NC(=O)C2CCN(C(=O)c3ccccc3)CC2)cc1OC, which Potency is on record?
Answer: inconclusive: 16.4 µM [activator, partial curve, poor fit]

Question: For CCOC(=O)CN(C(=O)CSc1nnc(CNc2ccc(F)cc2)o1)c1ccccc1, which Potency is on record?
Answer: inconclusive: 16.4 µM [inhibitor, partial curve, poor fit]

Question: With C=CCN1c2ccccc2[C@]23CCC(=O)N(CCOC)C2=NC(C(=O)OC)=C(C(=O)OC)[C@H]13 as the molecule, how does the Potency read?
Answer: inconclusive: 2.99 µM [activator, single point]

Question: For COCCn1c(N)c(N(Cc2ccccc2)C(=O)c2ccc3ccccc3c2)c(=O)[nH]c1=O, which Potency is on record?
Answer: inconclusive: 6.31 µM [inhibitor, single point]

Question: With Cc1sc2ncn(CC(=O)Nc3ccc(F)cc3Cl)c(=O)c2c1S(=O)(=O)N1CCN(c2ncccn2)CC1 as the molecule, how does the “activity change, negative = inhibition” value read?
Answer: inactive: -14.7% [at 46.1 µM]

Question: Which Potency does the source give for CC1(C)NC(=O)N(CCOc2ccc3c(c2)CCC3)C1=O here?
Answer: inconclusive: 0.411 µM [inhibitor, full curve, poor fit]

Question: With CCN(CC)C(=O)C1CCCN(Cc2nc(-c3cccs3)no2)C1 (configuration not stated) as the molecule, how does the “activity change, negative = inhibition” value read?
Answer: inactive: 5.05% [at 46.1 µM]

Question: With O=C(CS(=O)(=O)Cc1ccccc1)Nc1nnc(C(F)(F)F)s1 as the molecule, how does the “activity change, negative = inhibition” value read?
Answer: inactive: 11.2% [at 46.1 µM]

Question: Which Potency does the source give for O=c1cc(CSc2nc(NCc3ccc(Cl)cc3)c3ccccc3n2)nc2ccc(Cl)cn12 here?
Answer: inconclusive: 0.562 µM [inhibitor, full curve, poor fit]

Question: Which “activity change, negative = inhibition” value does the source give for Cc1ccc(NC(=O)CCNC(=O)c2ccco2)cc1F here?
Answer: inactive: 2.92%

Question: For O=C(Nc1cccc(O)c1)c1cc(-c2ccc3c(c2)OCO3)on1, which Potency is on record?
Answer: inconclusive: 1.26 µM [inhibitor, full curve, poor fit]

Question: With Cc1ccc(NC(=O)c2cc(=O)[nH]c3ccccc23)cc1C as the molecule, how does the “activity change, negative = inhibition” value read?
Answer: inactive: -2.83%

Question: For CCCC(OC(=O)CC1Sc2ccccc2NC1=O)C(=O)NCc1ccco1 (configuration not stated), which Potency is on record?
Answer: inconclusive: 32.6 µM [inhibitor, partial curve, poor fit]

Question: Which Potency does the source give for CC(C)C(=O)NC(Nc1ccc(S(N)(=O)=O)cc1)C(Cl)(Cl)Cl (configuration not stated) here?
Answer: inconclusive: 35.5 µM [inhibitor, single point]

Question: For COc1ccc2cc(C(=O)COC(=O)COc3ccc4c(C)cc(=O)oc4c3)ccc2c1, which Potency is on record?
Answer: inconclusive: 11.2 µM [inhibitor, single point]

Question: For COc1ccc(Cc2nnc(SCC(=O)NC3CCCC3)o2)cc1, which “activity change, negative = inhibition” value is on record?
Answer: inactive: -10.3%

Question: With Cc1nc(Sc2cccn2C)c(C(F)(F)F)c(=O)[nH]1 as the molecule, how does the Potency read?
Answer: inconclusive: 16.4 µM [activator, single point]

Question: With CCOc1ccc(N(CC(=O)Nc2cccc(C)c2)S(C)(=O)=O)cc1 as the molecule, how does the Potency read?
Answer: inconclusive: 1.26 µM [activator, single point]

Question: With O=C(NCCc1ccccc1)c1ccc2nccnc2c1 as the molecule, how does the Potency read?
Answer: active: 2.82 µM

Question: With COc1ccc(Br)cc1CN(C)CC(=O)NCCc1ccccc1 as the molecule, how does the “activity change, negative = inhibition” value read?
Answer: inactive: 3.26%

Question: With Nc1ccc(C2=Nc3cccc4cccc(c34)N2)cc1 as the molecule, how does the “activity change, negative = inhibition” value read?
Answer: inactive: -8.81%

Question: For CC(C)[C@H](NC(=O)c1ccc(C(C)(C)C)cc1)C(=O)N1CCN(Cc2ccc3c(c2)OCO3)CC1, which Potency is on record?
Answer: inconclusive: 15.8 µM [inhibitor, partial curve, poor fit]

Question: For CCOc1ccc(-n2c(SCC(N)=O)nc3sc4c(c3c2=O)CCN(C)C4)cc1, which Potency is on record?
Answer: inconclusive: 15.8 µM [inhibitor, single point]

Question: For C=CC[C@H](N)C(=O)O, which Potency is on record?
Answer: inconclusive: 32.6 µM [activator, partial curve, poor fit]

Question: For N#Cc1ccc(Oc2nccc(-c3c(-c4ccc(F)cc4)ncn3C3CCNCC3)n2)cc1, which Potency is on record?
Answer: inconclusive: 14.1 µM [inhibitor, partial curve]

Question: With CCOC(=O)c1c(S(=O)(=O)NCC(=O)N2CCN(c3cccc(Cl)c3)CC2)c(C)n(C)c1C as the molecule, how does the “activity change, negative = inhibition” value read?
Answer: inactive: -16.5% [at 46.1 µM]

Question: For COc1ccc(OC)c(C2CC(=O)Nc3n[nH]c(-c4ccccc4)c32)c1 (configuration not stated), which Potency is on record?
Answer: inconclusive: 35.5 µM [inhibitor, single point]

Question: Which “activity change, negative = inhibition” value does the source give for CN(C)c1ccc(/C=N/NC(=O)C(=O)N2CCCCCC2)cc1 here?
Answer: inactive: 3.05% [at 46.1 µM]

Question: For Cc1ccccc1Cc1c(C)nc2nc(SCC(=O)NCCCN3CCCCC3)nn2c1C, which Potency is on record?
Answer: inconclusive: 5.62 µM [inhibitor, single point]
